PubChem BioAssay AID1671195, Yale University – 2021
The deposit covers about 22,000 reagents; shown is an unselected part. About 1,510 of all reagents (6.9%) were called active. 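Active includes knockdowns raising or lowering LDL uptake; positive z-scores mean more uptake, negative mean less.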 A number with no mark means an inactive call.

- Purpose: 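Knockdowns that increase or decrease uptake of fluorescent LDL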 (primary screen)
- System: human Huh7 hepatoma cells
- Reagent: siRNA pool against human genes, 18 nM
- Duration: about 2 to 2.5 days of knockdown, then 8 h LDL uptake
- Treatment: DiI-labelled LDL at 30 µg/ml for 8 h, in lipoprotein-deficient serum medium
- Read-out: 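Fluorescent LDL signal imaged in cells, scaled to the plate median, robust z-score for each replicate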
- Reading the numbers: robust z-score: higher = more LDL uptake after knockdown
- Call rule: 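Active when two or more replicates show a robust z-score above 2 or below -2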

no.	gene knocked down	robust z-score, replicate 1	robust z-score, replicate 2	robust z-score, replicate 3
1	CEP68	-1.3	-0.0827	-2.48
2	STAM2	1.69	0.913	1.69
3	ACSM2A	0.874	-0.0953	-0.642
4	ZNF503	-1.1	-1.2	-1.26
5	ATG2A	-0.139	-0.854	0.688
6	KLHL30	-0.944	-0.991	-0.947
7	S100PBP	-0.555	-0.181	-0.841
8	SMO	0.725	0.924	0.866
9	OR2A5	0.471	0.904	0.901
10	ARMCX3	-1.45	-0.888	-0.211
11	SPHKAP	0.217	-0.118	0.184
12	ZMYM5	-0.962	-0.496	-1.24
13	HSD17B14	0.939	0.701	0.918
14	ACTRT3	-4.44	0.665	0.806
15	PHC2	-0.274	-0.664	0.162
16	EXOC5	1.61	1.6	2.46
17	PLVAP	1.95	0.493	1.17
18	CARM1	-0.823	-0.368	-1.15
19	PHF21A	-1.5	-1.58	-1.68
20	LOC389651 (retired record)	-0.251	-0.0871	0.0115
21	OR2G2	1.01	1.09	1.93
22	FOXN4	3.16 (active)	2.25	3.1
23	COL4A1	2.85	1.02	1.4
24	TMCO5A	-2.18 (active)	-2.11	-2.12
25	TMEM67	1.76	2.29	1.46
26	KCNK4	-0.169	0.0848	-0.43
27	COG5	-0.0196	0.336	0.119
28	TMPRSS11F	1.98	1.06	1.82
29	IRF3	0.641	0.693	0.723
30	CABP2	0.508	0.181	0.612
31	DHPS	-2.61 (active)	-2.15	-1.95
32	MMP17	0.798	1.22	0.846
33	STX4	1.28	1.61	1.14
34	SEC23IP	-0.378	0.233	-1.29
35	CCDC30	-0.189	0.43	0.0505
36	VGLL2	1.78	1.91	1.99
37	LOC441074 (retired record)	-0.197	-0.789	-0.87
38	LOC387981 (retired record)	-1.57	-1.36	-1.78
39	AKAP19	-0.941	-0.692	-1.23
40	RPL7P33	-0.4	-0.407	-0.598
41	MMP28	-0.346	-0.654	0.584
42	PPL	-1.18	0.945	-1.23
43	SCAMP3	-0.218	-0.326	-0.475
44	LY86-AS1	0.316	0.424	0.737
45	LOC388643 (retired record)	1.49 (active)	2.06	1.91
46	RAB8A	-0.561	-0.13	-0.25
47	OR6B1	1.31	0.651	2.61
48	LINC03025	0.736	0.394	0.223
49	PYCR1	1.4	0.881	1.89
50	SLC9A3-OT1	-0.329	0.529	-0.472
51	STX1A	0.25	-0.266	-0.196
52	FGF23	1.09	0.798	1.38
53	SLC41A1	-0.485	-0.0932	0.113
54	EPHA1	1.34	0.394	0.398
55	CFAP263	-1.74	-0.263	0.763
56	SRSF12	-0.65	-0.632	-1.17
57	SLC14A2	-1.66	-1.48	-1.84
58	RBIS	0.701	0.434	0.684
59	C8orf82	-0.629	-0.043	-0.495
60	TIMP1	0.0396	1.3	0.211
61	RPL27	-0.931	-1.33	-0.532
62	SPACA4	-0.468	-0.502	-0.565
63	DYNLT5	0.0893	0.576	0.204
64	KISS1	-0.873	-1.33	-1.01
65	CA5B	0.878	1.3	0.297
66	ENTREP3	0.285	-1.3	-0.222
67	ZNF304	-0.965	-1.14	-0.946
68	XXYLT1	0.941	0.621	-0.409
69	PHF20L1	-0.215	-0.115	-0.393
70	PDGFRB	0.327	0.899	1.47
71	DROSHA	-0.856	-1.33	-0.814
72	PCDHA5	0.592	0.581	0.524
73	FOXL1	2.77 (active)	2.72	4
74	THUMPD1P1	-0.257	0.0963	-0.015
75	DOP1B	0.106	-0.552	0.445
76	EFR3B	-1.12	-0.266	-1.71
77	PBDC1	1.66	1.42	1.32
78	MIXL1	0.585	-0.106	0.288
79	RPL29	0.181	-0.148	0.33
80	IARS2	-0.283	0.375	-0.418
81	CEP15	0.132	-0.29	0.41
82	MAPK8	0.0623	-0.0174	0.209
83	MAP3K19	-0.623	-1.36	-0.87
84	SSU72	-0.0992	-1.1	-1.29
85	SLC25A11	3.7 (active)	3.71	4.4
86	DUXA	-0.0988	-0.495	-0.781
87	GPRIN3	2.09	1.76	1.27

9 entries from above, ordered by “robust z-score, replicate 3”, descending:
gene knocked down	robust z-score, replicate 1	robust z-score, replicate 2	robust z-score, replicate 3
CA5B	0.878	1.3	0.297
DYNLT5	0.0893	0.576	0.204
ENTREP3	0.285	-1.3	-0.222
PHF20L1	-0.215	-0.115	-0.393
XXYLT1	0.941	0.621	-0.409
RPL27	-0.931	-1.33	-0.532
SPACA4	-0.468	-0.502	-0.565
ZNF304	-0.965	-1.14	-0.946
KISS1	-0.873	-1.33	-1.01
